In the supplement of paper PMC12067093, “Discovery and optimisation of a covalent ligand for TRIM25 and its application to targeted protein ubiquitination” (Chemical Science, 2025):
The other results are listed elsewhere or left out.

By UniProt entry, the sequences of proteins in these tests, tags left out. Where a name states a change or a piece, a line headed by the entry shows the natural chain unless it says otherwise.
UniProt Q9UHJ3: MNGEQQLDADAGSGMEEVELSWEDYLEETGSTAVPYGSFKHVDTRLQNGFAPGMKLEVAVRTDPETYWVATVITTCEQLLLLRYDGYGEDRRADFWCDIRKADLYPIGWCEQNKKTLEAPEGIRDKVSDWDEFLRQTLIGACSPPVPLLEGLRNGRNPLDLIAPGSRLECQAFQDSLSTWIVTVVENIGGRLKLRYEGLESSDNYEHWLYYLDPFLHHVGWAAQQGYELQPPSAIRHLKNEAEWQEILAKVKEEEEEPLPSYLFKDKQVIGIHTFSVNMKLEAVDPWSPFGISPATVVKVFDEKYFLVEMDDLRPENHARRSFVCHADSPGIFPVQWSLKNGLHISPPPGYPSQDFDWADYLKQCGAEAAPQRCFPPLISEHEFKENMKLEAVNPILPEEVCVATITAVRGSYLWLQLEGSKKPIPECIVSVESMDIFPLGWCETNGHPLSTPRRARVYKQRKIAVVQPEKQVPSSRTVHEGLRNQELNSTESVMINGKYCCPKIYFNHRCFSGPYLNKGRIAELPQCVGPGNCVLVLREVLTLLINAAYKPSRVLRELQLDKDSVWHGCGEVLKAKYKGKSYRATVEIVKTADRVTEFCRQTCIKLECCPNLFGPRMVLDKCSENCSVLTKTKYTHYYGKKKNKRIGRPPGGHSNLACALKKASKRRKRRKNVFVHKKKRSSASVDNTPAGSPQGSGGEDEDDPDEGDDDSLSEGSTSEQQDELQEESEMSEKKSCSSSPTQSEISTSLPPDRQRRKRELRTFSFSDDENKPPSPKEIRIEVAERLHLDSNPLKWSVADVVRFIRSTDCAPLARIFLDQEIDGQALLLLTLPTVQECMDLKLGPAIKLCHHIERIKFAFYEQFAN
UniProt Q9UBX3: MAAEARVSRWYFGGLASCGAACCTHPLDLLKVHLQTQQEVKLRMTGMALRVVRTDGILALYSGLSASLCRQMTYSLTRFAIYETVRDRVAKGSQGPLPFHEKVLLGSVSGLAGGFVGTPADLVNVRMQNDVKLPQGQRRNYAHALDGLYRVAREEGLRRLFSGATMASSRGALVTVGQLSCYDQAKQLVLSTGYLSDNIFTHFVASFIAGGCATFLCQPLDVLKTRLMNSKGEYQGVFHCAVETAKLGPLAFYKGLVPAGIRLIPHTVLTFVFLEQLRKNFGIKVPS
UniProt Q5VUG0: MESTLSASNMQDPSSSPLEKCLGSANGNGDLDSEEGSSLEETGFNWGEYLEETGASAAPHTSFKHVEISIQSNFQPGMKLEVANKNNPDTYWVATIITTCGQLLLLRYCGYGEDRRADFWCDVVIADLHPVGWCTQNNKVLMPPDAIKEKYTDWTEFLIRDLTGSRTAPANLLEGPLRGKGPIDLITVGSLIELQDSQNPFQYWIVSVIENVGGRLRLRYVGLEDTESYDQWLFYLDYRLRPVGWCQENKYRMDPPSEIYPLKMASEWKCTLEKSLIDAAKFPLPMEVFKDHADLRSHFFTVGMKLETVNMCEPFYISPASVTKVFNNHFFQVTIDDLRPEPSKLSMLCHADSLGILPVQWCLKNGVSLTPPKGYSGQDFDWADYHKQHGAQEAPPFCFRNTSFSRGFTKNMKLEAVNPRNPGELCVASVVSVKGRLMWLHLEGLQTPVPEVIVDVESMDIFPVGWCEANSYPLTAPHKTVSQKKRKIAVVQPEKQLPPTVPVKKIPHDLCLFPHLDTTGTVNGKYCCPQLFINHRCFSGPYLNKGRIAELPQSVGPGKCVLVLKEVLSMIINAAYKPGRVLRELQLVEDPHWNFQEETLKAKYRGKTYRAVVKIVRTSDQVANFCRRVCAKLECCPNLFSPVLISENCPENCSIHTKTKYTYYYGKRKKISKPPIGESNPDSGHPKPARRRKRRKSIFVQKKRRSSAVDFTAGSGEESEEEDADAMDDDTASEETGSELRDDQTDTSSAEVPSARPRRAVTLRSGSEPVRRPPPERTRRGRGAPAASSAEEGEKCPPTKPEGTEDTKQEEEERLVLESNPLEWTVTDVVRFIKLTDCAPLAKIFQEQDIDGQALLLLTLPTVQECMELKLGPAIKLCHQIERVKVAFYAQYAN
UniProt Q96EB6: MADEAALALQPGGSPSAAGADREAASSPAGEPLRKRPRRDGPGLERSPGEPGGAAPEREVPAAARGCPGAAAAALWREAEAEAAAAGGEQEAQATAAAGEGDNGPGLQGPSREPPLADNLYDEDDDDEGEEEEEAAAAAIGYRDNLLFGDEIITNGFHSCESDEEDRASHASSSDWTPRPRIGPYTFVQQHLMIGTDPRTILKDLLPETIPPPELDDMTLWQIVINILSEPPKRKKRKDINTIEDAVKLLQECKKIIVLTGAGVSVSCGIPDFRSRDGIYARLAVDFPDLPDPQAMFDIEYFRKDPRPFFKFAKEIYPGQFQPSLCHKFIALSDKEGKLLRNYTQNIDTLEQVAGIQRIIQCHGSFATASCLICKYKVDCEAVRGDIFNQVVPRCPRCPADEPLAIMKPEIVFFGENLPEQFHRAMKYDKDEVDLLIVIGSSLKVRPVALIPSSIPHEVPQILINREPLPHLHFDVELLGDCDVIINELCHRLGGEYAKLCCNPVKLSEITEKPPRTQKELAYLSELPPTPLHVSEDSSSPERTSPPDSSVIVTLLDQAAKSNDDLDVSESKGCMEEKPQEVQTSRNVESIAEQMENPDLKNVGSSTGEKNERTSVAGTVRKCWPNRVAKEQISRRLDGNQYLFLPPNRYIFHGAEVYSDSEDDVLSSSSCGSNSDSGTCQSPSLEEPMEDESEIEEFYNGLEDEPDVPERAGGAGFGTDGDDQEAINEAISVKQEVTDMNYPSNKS
UniProt Q96CQ1: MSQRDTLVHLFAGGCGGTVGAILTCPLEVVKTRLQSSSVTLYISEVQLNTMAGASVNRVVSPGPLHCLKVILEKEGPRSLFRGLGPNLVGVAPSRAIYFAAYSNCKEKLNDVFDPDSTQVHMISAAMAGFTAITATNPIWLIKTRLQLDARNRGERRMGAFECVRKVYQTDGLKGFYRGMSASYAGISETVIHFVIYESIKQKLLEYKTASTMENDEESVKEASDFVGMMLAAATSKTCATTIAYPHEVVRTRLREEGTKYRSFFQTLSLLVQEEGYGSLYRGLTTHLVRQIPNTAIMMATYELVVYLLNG

The targets below were run with Cc1cc(ccc1-c1ccccc1)C(=O)N1CCCN(CC1)C(=O)CCl [compound 10] (assay: probe-labelled cysteine peptide fold change vs DMSO (competition) (log2 fold change); higher = less target engagement (more negative = stronger competition)). Settings: 50 µM; THP-1; incubation time: 4 h.
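Also: competitive profiling in live THP-1 cells: cysteine peptides tagged with an iodoacetamide desthiobiotin (IA-DTB) probe, intensity after compound treatment relative to DMSO-treated cells.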

Target | probe-labelled cysteine peptide fold change
SFMBT1_Q9UHJ3_659_IGRPPGGHSNLACALKK (UniProt Q9UHJ3) | -0.67
SLC25A10_Q9UBX3_240_GEYQGVFHCAVETAK (UniProt Q9UBX3) | 0.118
SFMBT2_Q5VUG0_560_CVLVLK (UniProt Q5VUG0) | 0.211
SIRT1_Q96EB6_574_GCMEEKPQEVQTSR (UniProt Q96EB6) | -0.335
SLC25A36_Q96CQ1_67_VVSPGPLHCLK (UniProt Q96CQ1) | -0.182
